Over roughly 33,000 sequences, “E-score (-0.5 to 0.5)” has its median near -0.0059; the highest 2% begin near 0.26. The list shows a part of the results.
molecular target: T1, Cin5 (UniProt P40917); experiment: PBM E-score (8-mer binding enrichment) (E-score (-0.5 to 0.5)); higher = stronger / more preferred TF binding; conditions: protein concentration: 100 nM; construct: GST-full length
T1 sequence: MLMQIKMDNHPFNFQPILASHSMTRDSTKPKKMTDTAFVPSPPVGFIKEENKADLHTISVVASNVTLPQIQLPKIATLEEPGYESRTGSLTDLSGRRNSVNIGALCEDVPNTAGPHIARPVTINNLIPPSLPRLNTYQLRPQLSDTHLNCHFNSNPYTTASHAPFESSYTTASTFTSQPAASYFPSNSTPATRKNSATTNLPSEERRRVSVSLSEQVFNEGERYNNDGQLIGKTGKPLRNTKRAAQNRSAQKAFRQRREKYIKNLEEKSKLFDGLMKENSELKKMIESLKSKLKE
In short: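 Detection of bound protein used fluorescent anti-GST, with scans normalised by masliner. The proteins were GST-tagged yeast transcription factors applied at about 100-200 nM to universal all-10-mer Agilent arrays made double-stranded by primer extension. Each ungapped eight-base word, pooled with its reverse complement, was scored with an E-score from the Universal PBM Analysis Suite.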

Sequence | PBM E-score
ATTTGTGG | 0.102
ACGAAGTG | 0.103
ATAAGCCG | 0.167
CTTAAATC | 0.0581
TCAAGTAA | 0.14
GCGTTCAA | -0.0868
CTCGTTCA | -0.1
GAAGCTCA | 0.014
CGCCTCCC | -0.338
AGGCAGCC | -0.0396
AAAACGGG | 0.146
AATTGGGG | 0.0653
GCTCAGAC | -0.026
AACCCGTT | -0.103
CACCCAGC | -0.16
ACTCGAGT | 0.0891
AGAATGAA | 0.185
TCGGCTAA | 0.0227
AGACGGTA | 0.0472
TAGTTGGA | -0.0115
CCACCGAC | -0.0661
AAAGAGAT | 0.0293
TACAGATA | 0.103
AATCCTGC | 0.0423
ACAACGGT | -0.135

Sequence | PBM E-score
ACACGGTA | -0.0147
AAACGATG | 0.0533
TAGCTGCA | -0.208
ATATGGGC | 0.157
TACACCGA | 0.0105
ATATGCCA | 0.225
AACCCGGT | -0.0176
GAAAAGGC | -0.0591
AACACATA | 0.127
GTGCCTGA | -0.215
TCAACAAA | 0.134
ACGCGCAC | 0.0077
GAAGAGCA | -0.189
CCACGCAA | -0.107
CAAGAGCA | -0.0892
ATCCACCA | 0.0805
CTTGCTTA | 0.229
CACGACTC | -0.144
GAACAACC | 0.0755
CGGCACCG | 0.00123
AATGCCGC | 0.13
ATTGTAAG | 0.0427
CAATGCTC | 0.00285
CAAACTTG | 0.0884
CTATGAGC | -0.183

An excerpt of these results, in CSV form:
Sequence,PBM E-score
CAAGAGCA,-0.0892
ATCCACCA,0.0805

(continued)

Sequence | PBM E-score
CATAGTAG | 0.228
AAGTCCCC | -0.197
GAGGGTGA | -0.0364
AACCCGGG | -0.0485
AAGTACGG | 0.0604
TAGCTAGA | 0.0511
ATGAGGCA | -0.0643
GACGTTGC | 0.0386
ATATGCGC | 0.0712
ATATCATA | 0.288
AGGTACCC | -0.287
CATCCAAC | 0.109
CTTATAGC | -0.0169
GCAGTCGC | -0.165
ATAGGGGA | 0.019
GGCCGTGA | 0.0348
AGTTTGAG | 0.135
AGTATGAA | 0.211
AGACTGCC | -0.0602
CACCACCG | -0.253
ACTAAGCT | 0.159
AGAAGCGG | -0.127
CCGTGGGC | -0.187
AGCCAGTC | -0.182
CTACCAGC | -0.0681

Sequence | PBM E-score
ATGACGAA | 0.187
ACTCGGAC | -0.0214
CAGAGGGC | -0.14
ACTACAGG | 0.0972
GCACGACA | -0.109
TCGAGAGA | -0.098
AAAAGTCG | 0.0461
ACGGAATC | 0.13
GATTCTAC | 0.0577
GTGATTAA | 0.23
CAATCTCA | 0.0273
AAACCAGT | -0.102
CGGCCGCA | -0.143
AACTCCAT | 0.0158
AAACGCGT | -0.0191
GCGGTTCC | -0.0768
GCAGCCAC | -0.103
ACCCTGTG | -0.0365
CCCGGTTA | -0.276
ATACTCCA | 0.122
CGAACTCA | -0.0904
AGTTTGCG | 0.0575
AATATTTC | 0.18
TAGGAGCA | -0.227
CTGCCCTA | -0.0663

Quoted from the listing:
PBM E-score, AATATTTC reads 0.18
PBM E-score, CTGCCCTA reads -0.0663

(list continues)

Sequence | PBM E-score
AAGAATGG | 0.00852
CGATCGTA | 0.0611
GATGTCGA | -0.035
CTAAGCCC | -0.0799
AAGGTAAT | 0.174
CTACCTAG | -0.119
CGAGGGAC | -0.353
AACTGGCG | 0.082
CTACAAGC | -0.131
CTCGTTCC | -0.0186
GGTAGCGA | -0.0308
ACAAAATG | 0.187
ATACGCTG | 0.0129
ATTCTATA | 0.116
TCCTATCA | -0.0125
CATGGGCG | -0.0472
GGACGAGA | -0.0139
CTAAGGTC | 0.0393
GCCTGAGA | -0.171
AAGAACTC | 0.026
GCAAGCAC | -0.204
TATACACA | 0.118
ATGTCATG | 0.0742
CGAGACCA | 0.0615
CGTCACAA | -0.0941

Sequence | PBM E-score
GATACCGC | 0.0689
ATCATGTA | 0.0588
ATTCGTAA | 0.304
CAGTTAGA | 0.0421
ATGATCGC | 0.0101
CCCCTCTC | -0.318
AGCGGGAA | 0.0493
ATGACACA | 0.115
AATTGATA | 0.23
CTTCCTCA | 0.0942
AGATCCTG | -0.197
CAGTACCA | -0.0542
GTTACGCA | -0.0348
CCGCATCA | -0.0882
CAGTGGAA | -0.124
CCTTAACC | -0.22
CGGATACA | 0.166
AATTGACG | 0.0316
CATGGCCA | -0.2
ACGATTAC | 0.295
GATTAGGC | 0.0587
CCAGAGCA | -0.046
ATTCAAAA | 0.232
CGGTTGTA | -0.0842
TGATGCCA | 0.058

Sequence | PBM E-score
CGGCGAAC | -0.104
CCGCATTA | 0.157
ATACCCTC | 0.0408
CTTTGTGC | -0.0496
TCCACTCA | 0.0681
AGTTATGA | 0.103
ATCGAGTA | 0.12
GTTGAGGA | -0.0638
GTGTGCGA | -0.0825
CGGTCGAC | 0.0342
AAAATAAA | 0.184
CTACTTTC | 0.0621
ATGTTCTC | -0.0863
ATGTCAGC | 0.272
ACGGTTCT | -0.207
AGCCGGGA | -0.0505
CGCGGCGA | 0.119
AACGGACG | -0.0256
AGAGTGAT | 0.104
CTTTAACA | -0.0331
GTTAATTA | 0.215
CCAATAGG | -0.0237
ATGGTCTA | -0.124
CTATTAGA | -0.0827
GAAACGTC | -0.11

Sequence | PBM E-score
TCTGAACA | 0.0705
AAATATCA | 0.179
CCCGATAC | -0.192
GTGCCAAA | -0.0496
AAGTTACC | 0.0276
CCGGCCCA | -0.213
CTACGAAC | 0.0375
ATACAGAT | 0.229
ACTAGTCA | -0.0268
CTCGCATA | 0.12
AAGGGTTG | -0.0186
AAACTGTC | -0.0272
ATCCCCTC | -0.0871
CGTACGAA | 0.00617
AACTGCCT | 0.0765
CTTGTTAA | -0.0283
CCTGCTTA | 0.205
CTGCTGTA | -0.0655
GAGATGTA | 0.154
GAAGAAGA | 0.0189
AAACTGCT | -0.0489
CGGGGTGC | -0.0711
CTACGGTA | -0.0819
AAGCTCCG | 0.00276
AGCGAAGA | -0.106

Four successive entries already listed:
Sequence | PBM E-score
AAGAATGG | 0.00852
CGATCGTA | 0.0611
GATGTCGA | -0.035
CTAAGCCC | -0.0799

Additional results follow.

Sequence | PBM E-score
AAACACAG | 0.101
CCCGTTAC | 0.114
TCGTCAAA | 0.0395
AAACTGAC | -0.14
GATTTTCC | -0.0244
TCGGTCCA | -0.0589
GTACTGTA | -0.114
ATGGCGAC | -0.11
ACTAATAG | 0.277
ACGAACTA | 0.105
CTCTTCAA | -0.224
CAAGTCGG | -0.00643
ACTTTCGG | -0.0738
AACGATTC | 0.103
GTAGGCAC | -0.127
CTACACAG | -0.0209
ACCAATGC | 0.0593
CCATCCGG | -0.107
CGATATAA | 0.144

— the supplement of paper PMC3334620
